In the supplement of paper PMC12823440, “Inhibitors supercharge kinase turnover through native proteolytic circuits” (Nature, 2025):
The list shows a part of the results. The calls rarely recur for the same compound in another form.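 Kinases, fused to nanoluciferase, were expressed in K562 cells; luminescence was measured every 4 h from 2 to 18 h as percent of control (DMSO = 100%, positive control = 0%). A time point is decreased if signal falls significantly (2 sigma). Hits were called by the authors by a rule that is not shown; the count of time points alone does not decide it.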

biological target: EGFR_G719S_T790M (UniProt P00533); experiment: kinase-Nluc reporter destabilization hit call (1 = scored as downregulated) (binary); higher = compound decreases kinase abundance; conditions: 2.5 µM; K562; 2-18 h

kinase-Nluc reporter destabilization hit call, inactive:
Cc1cn(-c2cc(NC(=O)c3ccc(C)c(Nc4nccc(-c5cccnc5)n4)c3)cc(C(F)(F)F)c2)cn1 [Nilotinib] 0
COc1cc(Nc2c(C#N)cnc3cc(OCCCN4CCN(C)CC4)c(OC)cc23)c(Cl)cc1Cl [Bosutinib] 0
CCc1cc2c(cc1-c1cnn(CC(=O)N(C)C)c1)C(C)(C)c1[nH]c3cc(C#N)ccc3c1C2=O 0
COc1cc(N2CCC(N3CCN(C)CC3)CC2)ccc1Nc1ncc(Cl)c(Nc2ccccc2S(=O)(=O)C(C)C)n1 0

same assay, conditions: 10 µM; K562; 2-18 h

kinase-Nluc reporter destabilization hit call, inactive:
C[C@@]1(C(=O)Nc2ccc(F)nc2)CCCN1c1nc(Nc2cc(C3CC3)n[nH]2)c2cccn2n1 0
Cc1ccc(-n2nc(C(C)(C)C)cc2NC(=O)Nc2ccc(OCCN3CCOCC3)c3ccccc23)cc1 [Doramapimod] 0
O=C(O)c1ccc(Nc2ncc3c(n2)-c2ccc(Cl)cc2C(c2c(F)cccc2F)=NC3)cc1 0
O=C(NCCCNc1nc(Nc2cccc(CN3CCOCC3)c2)ncc1C1CC1)C1CCC1 0

biological target: EGFR_L718V (UniProt P00533); experiment: as above; conditions: 2.5 µM; K562; 2-18 h

kinase-Nluc reporter destabilization hit call, inactive:
Cc1cn(-c2cc(NC(=O)c3ccc(C)c(Nc4nccc(-c5cccnc5)n4)c3)cc(C(F)(F)F)c2)cn1 [Nilotinib] 0
COc1cc(Nc2c(C#N)cnc3cc(OCCCN4CCN(C)CC4)c(OC)cc23)c(Cl)cc1Cl [Bosutinib] 0
CCc1cc2c(cc1-c1cnn(CC(=O)N(C)C)c1)C(C)(C)c1[nH]c3cc(C#N)ccc3c1C2=O 0
COc1cc(N2CCC(N3CCN(C)CC3)CC2)ccc1Nc1ncc(Cl)c(Nc2ccccc2S(=O)(=O)C(C)C)n1 0

same assay, conditions: 10 µM; K562; 2-18 h

kinase-Nluc reporter destabilization hit call, inactive:
C[C@@]1(C(=O)Nc2ccc(F)nc2)CCCN1c1nc(Nc2cc(C3CC3)n[nH]2)c2cccn2n1 0
Cc1ccc(-n2nc(C(C)(C)C)cc2NC(=O)Nc2ccc(OCCN3CCOCC3)c3ccccc23)cc1 [Doramapimod] 0
O=C(O)c1ccc(Nc2ncc3c(n2)-c2ccc(Cl)cc2C(c2c(F)cccc2F)=NC3)cc1 0
O=C(NCCCNc1nc(Nc2cccc(CN3CCOCC3)c2)ncc1C1CC1)C1CCC1 0
